These are yes or no findings as the source states them, for the method shown. Some binding calls cover weakened binding; strength is not graded here. Sequences can lack the tags named with a protein.
Assays:
[1] = biological target: T1, His-tagged 4Ig-domain of Neogenin (Gallus gallus, UniProt Q90610 1-383); experiment: binding studies (data not shown)
T1 construct: Secreted from transfected cells, purified on Ni-NTA; also called His-4Ig; Neogenin-4Ig; not shown: 6-His tag at the N-terminus; myc and 6-His tags of the pSectag 2B vector at the C-terminus
T1 sequence: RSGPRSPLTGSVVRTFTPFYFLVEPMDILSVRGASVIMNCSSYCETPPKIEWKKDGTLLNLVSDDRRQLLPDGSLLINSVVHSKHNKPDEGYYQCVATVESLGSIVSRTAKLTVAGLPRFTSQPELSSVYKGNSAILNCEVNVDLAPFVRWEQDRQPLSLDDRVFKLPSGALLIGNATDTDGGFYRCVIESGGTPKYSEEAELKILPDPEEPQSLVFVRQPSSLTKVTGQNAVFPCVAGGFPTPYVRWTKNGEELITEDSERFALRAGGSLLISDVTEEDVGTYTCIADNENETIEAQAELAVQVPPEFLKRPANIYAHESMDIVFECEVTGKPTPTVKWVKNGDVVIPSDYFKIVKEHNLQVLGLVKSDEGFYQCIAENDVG

[2] = biological target: T2, N-RGMa (N-terminal part of RGMa) (chicken) (UniProt Q8JG54); experiment: ELISA with AP fusions (FIG. 2A)
T2 sequence: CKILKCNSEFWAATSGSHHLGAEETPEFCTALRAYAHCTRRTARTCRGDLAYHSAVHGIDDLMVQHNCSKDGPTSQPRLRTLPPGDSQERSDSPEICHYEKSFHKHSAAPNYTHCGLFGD

[3] = biological target: T2, N-RGMa (N-terminal part of RGMa) (chicken); experiment: ELISA with AP fusions and outgrowth assay (FIGS. 2A-2D)
[4] = biological target: T3, C-RGMa (C-terminal part of RGMa) (chicken) (UniProt Q8JG54); experiment: as above
T3 sequence: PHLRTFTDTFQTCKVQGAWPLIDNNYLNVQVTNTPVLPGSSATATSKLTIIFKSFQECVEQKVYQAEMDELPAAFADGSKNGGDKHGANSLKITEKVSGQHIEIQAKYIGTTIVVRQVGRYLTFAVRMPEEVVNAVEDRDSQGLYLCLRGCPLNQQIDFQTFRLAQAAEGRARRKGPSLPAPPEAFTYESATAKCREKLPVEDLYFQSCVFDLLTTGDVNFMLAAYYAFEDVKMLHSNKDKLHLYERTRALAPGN

[5] = biological target: T4, full-length RGMa (chicken) (UniProt Q8JG54); experiment: as above
T4 sequence: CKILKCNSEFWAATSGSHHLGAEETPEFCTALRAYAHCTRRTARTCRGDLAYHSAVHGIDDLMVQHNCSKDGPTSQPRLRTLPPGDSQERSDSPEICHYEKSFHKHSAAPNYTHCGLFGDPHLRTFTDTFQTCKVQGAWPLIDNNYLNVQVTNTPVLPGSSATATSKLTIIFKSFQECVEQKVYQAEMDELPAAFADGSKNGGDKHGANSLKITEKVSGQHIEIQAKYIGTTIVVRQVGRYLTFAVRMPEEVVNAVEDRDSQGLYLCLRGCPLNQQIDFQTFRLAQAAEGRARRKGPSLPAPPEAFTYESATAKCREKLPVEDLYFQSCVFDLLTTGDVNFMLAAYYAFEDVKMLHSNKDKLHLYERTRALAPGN

[6] = biological target: T3, C-RGMa (C-terminal part of RGMa) (chicken); experiment: binding assay, 4Ig-AP and 6FNIII-AP on wells coated with RGMa proteins (FIG. 9B)
[7] = biological target: T4, full-length RGMa (chicken); experiment: as above
[8] = biological target: T3, C-RGMa (C-terminal part of RGMa) (chicken); experiment: plate binding assay with 4Ig- or 6FNIII-AP (FIG. 2A)
[9] = biological target: T4, full-length RGMa (chicken); experiment: ELISA with AP fusions (FIG. 2A)

Measured: binding

B1: N-RGMa portion from human (peptide, UniProt Q96B86 48-168, looked up)
peptide: CKILKCNSEFWSATSGSHAPASDDTPEFCAALRSYALCTRRTARTCRGDLAYHSAVHGIEDLMSQHNCSKDGPTSQPRLRTLPPAGDSQERSDSPEICHYEKSFHKHSATPNYTHCGLFGD
binds: [1]

B2: 4Ig-domain of Neogenin fused to alkaline phosphatase (receptor, not shown: large carriers)
chain: T1 sequence
binds: [2]

B3: 6FNIII-domain of Neogenin fused to alkaline phosphatase (receptor, not shown: large carriers)
chain: RDVVATLVSTRFIRLTWRTPVSDPQGDNLTYSIFYTKEGINRERVENTSRPGETQVMIQNLMPETVYVFRVVAQNKHGHGESSAPLKVATQPEVQLPGPAPNIRAYAGSPTSVTVTWETPLSGNGEIQNYKLYYMEKGQDSEQDVDVAGLSYTITGLKKYTEYSFRVVAYNKHGPGVSTQDVVVRTLSDVPSAAPQNLTLEARNSKSIMLHWQPPPAGTHSGQITGYKIRYRKVSRKSDVTESVGGTQLFQLIEGLERGTEYNFRIAAMTVNGTGPATDWVSAETFESDLDESRVPEVPSSLHVRPLVTSIVVSWTPPENQNIVVRGYAIGYGIGSPHAQTIKVDYKQRYYTIENLDPSSHYVITLKAFNNVGEGIPLYESAVTRPHSDTSEVDLFVINAPYTPVPDPSPMMPPVGVQASILSHDTIRITWADNSLPKNQKITDARYYTVRWKTNIPANTKYKTANATTLSYLVTGLKPNTLYEFSVMVTKGRRSSTWSMTAHGTTFELVPTSPPKDVTVVSKEGKPRTIIVNWQPPSEANGKITGYIIYYSTDVNAEIHDWVIEPVVGNRLTHQIQELTLDTPYYFKIQARNSKGMGPMSEAVQFRT
not listed: [1]
binds: all other assays above

Reference: patent US20160271230A1 (UNIVERSITY HEALTH NETWORK, published 2016)
